Source: PubChem BioAssay AID1794845 (National Center for Advancing Translational Sciences (NCATS), 2023)
Among all 6,900 compounds or so, fewer than 10 were called active. Calls come from the whole dose curve; as a rule, active = well fitted curve in the direction sought with a large enough effect; inconclusive = small, poorly fitted or top-dose-only effect, or another doubt; inactive = no such curve, though single readings can be large or run the other way. The list shows a part of the results.

The chains behind the UniProt entries cited, without tags or fusion partners. Where a name states a change or a piece, a line headed by the entry shows the natural chain unless it says otherwise.
UniProt C7C422: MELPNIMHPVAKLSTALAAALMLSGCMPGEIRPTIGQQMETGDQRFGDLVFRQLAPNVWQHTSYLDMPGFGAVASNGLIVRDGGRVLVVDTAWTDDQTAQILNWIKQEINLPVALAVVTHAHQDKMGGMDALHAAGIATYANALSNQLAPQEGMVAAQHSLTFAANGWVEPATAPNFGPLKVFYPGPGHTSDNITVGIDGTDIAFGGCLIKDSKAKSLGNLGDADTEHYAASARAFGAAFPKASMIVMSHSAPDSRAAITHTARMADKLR

Target: Metallo-beta-lactamase type 2 (Klebsiella pneumoniae) (UniProt C7C422)
Assay: qHTS to identify inhibitors of the New Delhi Metallo-beta-lactamase (NDM): primary screen against the NCATS Gemini Collection; note: % of control where 0% means no effect
Conditions: NDM-1 enzyme, meropenem hydrolysis, absorbance 300 nm; at 38.4 µM (top of the series) unless noted
Procedure, shortened: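 NDM-1 at 2 nM final in 50 mM HEPES pH 7.0, 1 uM ZnSO4, 0.01% Tween20, preincubated >30 min with compound. Meropenem 50 uM final added; absorbance at 300 nm after 30 min.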

Question: For COc1ccc(C(=O)N2CCOC[C@H](Oc3cccnc3)C2)cc1, which activity % (negative = inhibition) is on record?
Answer: inactive: 4.61% [at 57.5 µM]

Question: Which activity % (negative = inhibition) does the source give for Cc1ccc(CN2CCCCCNC(=O)[C@@H]3CCC[C@@H]32)s1 here?
Answer: inactive: 3.28%

Question: Which activity % (negative = inhibition) does the source give for N#Cc1ccc(C(=O)N2CCN3CCS(=O)(=O)N(C4CC4)C(=O)C3C2)cc1 (stereo not given) here?
Answer: inactive: 2.59%

Question: COC(=O)NC1CCN(c2ccc3nnc(-c4ccccc4)n3n2)C1 (stereo not given) was tested. Which activity % (negative = inhibition) did it give?
Answer: inactive: 2%

Question: CC(C)(Oc1nn(CC2CCOCC2)c2ccccc12)C(=O)NCc1ccncc1 was tested. Which activity % (negative = inhibition) did it give?
Answer: inactive: 6.15% [at 57.5 µM]

Question: Which activity % (negative = inhibition) does the source give for c1cncc(-c2cc(-c3cccc(N4CCOCC4)c3)cn3cncc23)c1 here?
Answer: inactive: 10.5% [at 57.5 µM]

Question: Which activity % (negative = inhibition) does the source give for CC(C)(C)c1ccc(-c2cc(C[C@H]3CNCC[C@H]3CC(=O)N3CCOCC3)no2)cc1 here?
Answer: inactive: -0.949% [at 57.5 µM]

Question: Which activity % (negative = inhibition) does the source give for COc1ncccc1CNC[C@H]1O[C@@H]2C[C@@H](CC(=O)N3CCOCC3)O[C@@H]2[C@@H]1O here?
Answer: inactive: 9.82% [at 57.5 µM]

Question: CC(C)S(=O)(=O)N(C)Cc1cccc(N2CCN(C(=O)c3c(Cl)cccc3Cl)CC2)c1F was tested. Which activity % (negative = inhibition) did it give?
Answer: inactive: -0.563%

Question: Cn1ccnc1CNC[C@H]1Cn2cc(-c3ccccc3)nc2CO1 was tested. Which activity % (negative = inhibition) did it give?
Answer: inactive: 44.2% [at 57.5 µM]

Question: How did the activity % (negative = inhibition) turn out when O=S(=O)(c1ccccc1)N1CCCC(CN2CCCC2)CC1 (stereo not given) was run?
Answer: inactive: 14.1%

Question: NC(=O)NCC(=O)N1CCC2(CCCN(CCCc3ccccc3)C2)C1 (stereo not given) was tested. Which activity % (negative = inhibition) did it give?
Answer: inactive: -1.71%

Question: With COc1ccc2c(c1)c(CN1CCOCCNC(=O)CC1)cn2C as the compound, how does the activity % (negative = inhibition) read?
Answer: inactive: -4.71%

Question: O=C(NC1CC(c2nnc(CO)n2C2CC2)C1)c1cccn2cnnc12 (stereo not given) was tested. Which activity % (negative = inhibition) did it give?
Answer: inactive: 6.45%

Question: With CC(=O)N1CCN(c2ccnc(-c3nnc(C)n3C3CCCCC3)c2)CC1 as the compound, how does the activity % (negative = inhibition) read?
Answer: inactive: 7.58% [at 57.5 µM]

Question: How did the activity % (negative = inhibition) turn out when CN1C[C@H](O)C[C@H]1c1nnc2n1CCN(C(=O)Cc1cccc(F)c1)CC2 was run?
Answer: inactive: 22.2%

Question: With COc1ccc(C(=O)N2CC[C@@H](CC(=O)O)[C@@H](CCN3CCC[C@H]3C(N)=O)C2)cc1 as the compound, how does the activity % (negative = inhibition) read?
Answer: inactive: 16.3% [at 57.5 µM]

Question: For Cc1nc(CN2CCN(c3nccc(-c4cccnc4)n3)CC2)cs1, which activity % (negative = inhibition) is on record?
Answer: inactive: 7.35%

Question: How did the activity % (negative = inhibition) turn out when O=C(NCc1ccc(F)cc1)[C@@H]1C[C@@H](c2cccc(C(F)(F)F)c2)N(CC2CCOCC2)C1 was run?
Answer: inactive: 4.15%

Question: O=C(c1ccccn1)N1CCCC2(CNc3ccccc3[S+](=O)([O-])N2)C1 (stereo not given) was tested. Which activity % (negative = inhibition) did it give?
Answer: inactive: 27.6%

Question: For O=C1NCCN1C1CCN(Cc2cccnc2)CC1, which activity % (negative = inhibition) is on record?
Answer: inactive: -2% [at 57.5 µM]

Question: For CCC(c1cccs1)N1C(=O)[C@H]2CN(S(=O)(=O)c3ccccc3F)C[C@H]2C1=O (stereo not given in full), which activity % (negative = inhibition) is on record?
Answer: inactive: 9.97%

Question: With COCc1nc2nc(-c3ccccc3)c(-c3ccc(O)c(F)c3)cc2n1C as the compound, how does the activity % (negative = inhibition) read?
Answer: inactive: 9.05% [at 57.5 µM]

Question: How did the activity % (negative = inhibition) turn out when Cc1ccc(C(C(=O)O)N2CCC(C(=O)N3CCCC3)CC2)c(C)c1 (stereo not given) was run?
Answer: inactive: -7.75%

Question: CC(=O)N1CCCCN(C(=O)c2cc(-c3ccccc3C(F)(F)F)nc3c2cnn3C)C1 was tested. Which activity % (negative = inhibition) did it give?
Answer: inactive: 6.36%

Question: OC1(CN2CCCCC2)CCN(Cc2cnn(-c3ccccc3Cl)c2)C1 (stereo not given) was tested. Which activity % (negative = inhibition) did it give?
Answer: inactive: -2.02%

Question: For O=C(c1ccc2c(c1)[nH]c(=O)n2C1CCC(O)CC1)N1CCOCC(O)C1 (stereo not given), which activity % (negative = inhibition) is on record?
Answer: inactive: 3.21%

Question: How did the activity % (negative = inhibition) turn out when CNC(=O)c1noc(CNC(=O)C(c2cccc(F)c2)N(C)C)n1 (stereo not given) was run?
Answer: inactive: 0.506%

Question: How did the activity % (negative = inhibition) turn out when O=C(Nc1ccccc1)N1CCC(N2CCCNC2=O)CC1 was run?
Answer: inactive: 10.9% [at 57.5 µM]

Question: How did the activity % (negative = inhibition) turn out when Cc1ccc(CN2CCn3c(nn(-c4ccncc4)c3=O)C2)cc1 was run?
Answer: inactive: 8.45% [at 57.5 µM]

Question: Which activity % (negative = inhibition) does the source give for Cn1cccc1CN1C[C@@H](CO)[C@H](c2ccncc2)C1 here?
Answer: inactive: -3.1%

Question: CN(Cc1cn(-c2ccccc2)nn1)Cc1noc2c1CCCC2 was tested. Which activity % (negative = inhibition) did it give?
Answer: inactive: 0.973%

Question: CC(C)Oc1ccc(C(=O)N2Cc3cnn(Cc4ccc(F)cc4)c3C2)cc1 was tested. Which activity % (negative = inhibition) did it give?
Answer: inactive: -4.58%

Question: How did the activity % (negative = inhibition) turn out when CN(CCc1cn[nH]c1)C(=O)C1CCN(C(=O)C2CCC2)CC1 was run?
Answer: inactive: 10.5%

Question: How did the activity % (negative = inhibition) turn out when O=C(NCc1ccccc1)c1ccc(-c2ccc(N3CCSCC3)nc2)cc1 was run?
Answer: inactive: 9.54%

Question: With CCNC(=O)N1CC[C@H]2CC(=O)N([C@H](C(N)=O)C(C)C)CC[C@H]2C1 as the compound, how does the activity % (negative = inhibition) read?
Answer: inactive: 10.7% [at 57.5 µM]

Question: Which activity % (negative = inhibition) does the source give for COc1ncccc1-c1nc(-c2c(C)noc2C)cc2cc(CN(C)C)oc12 here?
Answer: inactive: 9.2% [at 57.5 µM]

Question: Which activity % (negative = inhibition) does the source give for O=C(Nc1cccc(C(F)(F)F)c1)N[C@H]1[C@H](O)[C@@H](Oc2ccccc2)[C@@H]2OC[C@H]1O2 here?
Answer: inactive: -0.184% [at 57.5 µM]

Question: With Cc1ccc(-c2cc3c(=O)n(CCNC(=O)c4cc(F)ccc4F)ccn3n2)c(C)c1 as the compound, how does the activity % (negative = inhibition) read?
Answer: inactive: 10.2%

Question: How did the activity % (negative = inhibition) turn out when O=C(O)CCn1ncc2cc(OCC3CCN(c4ncc(F)cn4)CC3)ccc21 was run?
Answer: inactive: 5.14% [at 57.5 µM]
